Results are given in words; binding and its absence hold for the method and conditions named. Binding calls can cover weak binding; strength is not graded here.
B1: EVASIN-5a (peptide)
peptide: EKWAP
modifications: pyroglutamic acid (<E) at position 1 (N-terminus)
B2: EVASIN-9a (peptide)
peptide: EWPRPQIPP
modifications: pyroglutamic acid (<E) at position 1 (N-terminus)
B3: EVASIN-11b (peptide)
peptide: EGRAPGPPIPP
modifications: pyroglutamic acid (<E) at position 1 (N-terminus)
B4: EVASIN-11c (peptide)
peptide: EGRAPHPPIPP
modifications: pyroglutamic acid (<E) at position 1 (N-terminus)
B5: EVASIN-12a (peptide)
peptide: EGWAWPRPQIPP
modifications: pyroglutamic acid (<E) at position 1 (N-terminus)
B6: EVASIN-13a (peptide)
peptide: EGGWPRPGPEIPP
modifications: pyroglutamic acid (<E) at position 1 (N-terminus)

These binders were tested against recombinant neutral endopeptidase (assay: fluorogenic substrate (Abz-RL-EDDnp) inhibition assay, recombinant NEP).
B1 was tested, and the binding was “binds”. For B2, the binding was “binds”. With B3 the binding was “binds”. In the case of B4, the binding is reported as “binds”. In the case of B5, the binding is reported as “binds”. B6 was tested, and the binding was “binds”.

Reference: US20080199503A1, “Pharmaceutical Compositions Preparation of Peptides, Secreted by the Snake Venom Glands, Particularly of Bothrops Jararaca, Vasopeptidases Inhibitors, Evasins, Their Analogues, Derivatives and Products Associated, Thereof, for Development of Applications and Use in Chronic-Degenerative Diseases” (priority 2002, published 2008)
